pIC50: −log10 of the molar value.
Assay: Inhibition of Staphylococcus aureus sortase A deltaN59 mutant assessed as Dap(Dnp) hydrolysis by FRET assay

CN1[C@@H]2CC[C@H]1C[C@@H](OC(=O)C(O)c1ccccc1)C2 (stereo partly specified) [HOMATROPINE]
pIC50: < 4.30
